# The other results are listed elsewhere or left out.
# B1: Gs78B-bfa-542-29-542 (Bacteroides fragilis) (protein)
# chain: SEDINRNPLLPTKEDEKMDGVIYGAYLPNLEKSVIPIGTASESTEPVNRYQIGVNLAGDAWAGYMSPRDNKFNGSKNFTNYFMYENWVNYVYSFMVTDVYSPWMQIKRISQDEGTRNDEIYALAQIIKIAALHRTTDMFGPIPYSQVGKGSFKVAYDSQESVYRSFLKELEEAVQTLDDYSNKSKEVLPAFDIVYNGDVNKWMRFANSLMLRLAIRVRFADAGLAKEYAEKAVKHPAGLINSKELAAQMGKGAGLQMKNPLKVINEEYNDTRMGATIYSYLAGYNDARAAVYFVKNNGFKAVRCGIAKSGDAYNGFTRPNVHEDDPLYWMKASEVCFLKAEGALAGFDMGGSAGDFYNAGIRMSFSENGLDNSSAETYLKDSTRKPANYTDTSNGELSANAPSSITIRWENGATEEEKLERIITQKYLAIFPNGQEAWTEWRRTGYPRQIVVAENKTNSAVLIGNGYDLGGVRRLPYPRTEYEQNGENLHNAISQYLGGVDNAATKVWWDKKSK
# Legend:
# Assay in all cases: glycan array binding signal (z-score within array); higher = stronger binding
# Details in all cases: glycan notation: IUPAC condensed, linker removed
# Neu5Ac(a2-3)GalNAc = target: Neu5Ac(a2-3)GalNAc
# How it was run: (§1)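 From the Consortium for Functional Glycomics database, 3228 arrays were curated, keeping only those whose protein sequence was available. Binding is given as a within-array Z-score averaged across arrays sharing a protein sequence and across linkers. Negative Z-scores can be read as non-binding.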
# [1] = target: Neu5Ac(a2-3)GalNAc(b1-4)GlcNAc
# How it was run: as §1
# [2] = target: Neu5Ac(a2-3)[GalNAc(b1-4)]Gal(b1-4)Glc
# How it was run: as §1
# [3] = target: Neu5Ac(a2-3)[GalNAc(b1-4)]Gal(b1-4)GlcNAc
# How it was run: as §1
# [4] = target: Neu5Ac(a2-3)[GalNAc(b1-4)]Gal(b1-4)GlcNAc(b1-3)GalNAc
# How it was run: as §1
# [5] = target: Neu5Ac(a2-3)[Neu5Ac(a2-6)]GalNAc
# How it was run: as §1
# Neu5Ac(a2-6)Gal = target: Neu5Ac(a2-6)Gal
# How it was run: as §1
# [6] = target: Neu5Ac(a2-6)Gal(b1-3)GlcNAc(b1-3)[Gal(b1-4)GlcNAc(b1-6)]Gal(b1-4)Glc
# How it was run: as §1
# Neu5Ac(a2-6)Gal(b1-4)Glc = target: Neu5Ac(a2-6)Gal(b1-4)Glc
# How it was run: as §1
# [7] = target: Neu5Ac(a2-6)Gal(b1-4)GlcNAc
# How it was run: as §1
# [8] = target: Neu5Ac(a2-6)Gal(b1-4)GlcNAc(b1-2)Man
# How it was run: as §1
# [9] = target: Neu5Ac(a2-6)Gal(b1-4)GlcNAc(b1-2)Man(a1-3)Man(b1-4)GlcNAc(b1-4)GlcNAc
# How it was run: as §1
# [10] = target: Neu5Ac(a2-6)Gal(b1-4)GlcNAc(b1-2)Man(a1-3)[Gal(b1-4)GlcNAc(b1-2)Man(a1-6)]Man(b1-4)GlcNAc(b1-4)GlcNAc
# How it was run: as §1
# [11] = target: Neu5Ac(a2-6)Gal(b1-4)GlcNAc(b1-2)Man(a1-3)[GlcNAc(b1-2)Man(a1-6)]Man(b1-4)GlcNAc(b1-4)GlcNAc
# How it was run: as §1
# [12] = target: Neu5Ac(a2-6)Gal(b1-4)GlcNAc(b1-2)Man(a1-3)[GlcNAc(b1-4)][Neu5Ac(a2-6)Gal(b1-4)GlcNAc(b1-2)Man(a1-6)]Man(b1-4)GlcNAc(b1-4)GlcNAc
# How it was run: as §1
# [13] = target: Neu5Ac(a2-6)Gal(b1-4)GlcNAc(b1-2)Man(a1-3)[Man(a1-6)]Man(b1-4)GlcNAc(b1-4)GlcNAc
# How it was run: as §1
# [14] = target: Neu5Ac(a2-6)Gal(b1-4)GlcNAc(b1-2)Man(a1-3)[Neu5Ac(a2-3)Gal(b1-4)GlcNAc(b1-2)Man(a1-6)]Man(b1-4)GlcNAc(b1-4)GlcNAc
# How it was run: as §1
# [15] = target: Neu5Ac(a2-6)Gal(b1-4)GlcNAc(b1-2)Man(a1-3)[Neu5Ac(a2-6)Gal(b1-4)GlcNAc(b1-2)Man(a1-6)]Man(b1-4)GlcNAc(b1-4)GlcNAc
# How it was run: as §1
# [16] = target: Neu5Ac(a2-6)Gal(b1-4)GlcNAc(b1-2)Man(a1-3)[Neu5Ac(a2-6)Gal(b1-4)GlcNAc(b1-2)Man(a1-6)]Man(b1-4)GlcNAc(b1-4)[Fuc(a1-6)]GlcNAc
# How it was run: as §1
# [17] = target: Neu5Ac(a2-6)Gal(b1-4)GlcNAc(b1-2)Man(a1-6)Man(b1-4)GlcNAc(b1-4)GlcNAc
# How it was run: as §1
# [18] = target: Neu5Ac(a2-6)Gal(b1-4)GlcNAc(b1-2)Man(a1-6)[Gal(b1-4)GlcNAc(b1-2)Man(a1-3)]Man(b1-4)GlcNAc(b1-4)GlcNAc
# How it was run: as §1
# [19] = target: Neu5Ac(a2-6)Gal(b1-4)GlcNAc(b1-2)Man(a1-6)[GlcNAc(b1-2)Man(a1-3)]Man(b1-4)GlcNAc(b1-4)GlcNAc
# How it was run: as §1
# [20] = target: Neu5Ac(a2-6)Gal(b1-4)GlcNAc(b1-2)Man(a1-6)[Man(a1-3)]Man(b1-4)GlcNAc(b1-4)GlcNAc
# How it was run: as §1
# [21] = target: Neu5Ac(a2-6)Gal(b1-4)GlcNAc(b1-2)[Neu5Ac(a2-6)Gal(b1-4)GlcNAc(b1-4)]Man(a1-3)[GlcNAc(b1-4)][Neu5Ac(a2-6)Gal(b1-4)GlcNAc(b1-2)[Neu5Ac(a2-6)Gal(b1-4)GlcNAc(b1-6)]Man(a1-6)]Man(b1-4)GlcNAc(b1-4)GlcNAc
# How it was run: as §1
# [22] = target: Neu5Ac(a2-6)Gal(b1-4)GlcNAc(b1-2)[Neu5Ac(a2-6)Gal(b1-4)GlcNAc(b1-4)]Man(a1-3)[GlcNAc(b1-4)][Neu5Ac(a2-6)Gal(b1-4)GlcNAc(b1-4)Man(a1-6)]Man(b1-4)GlcNAc(b1-4)GlcNAc
# How it was run: as §1
# [23] = target: Neu5Ac(a2-6)Gal(b1-4)GlcNAc(b1-2)[Neu5Ac(a2-6)Gal(b1-4)GlcNAc(b1-6)]Man(a1-6)[Neu5Ac(a2-6)Gal(b1-4)GlcNAc(b1-2)Man(a1-3)][GlcNAc(b1-4)]Man(b1-4)GlcNAc(b1-4)GlcNAc
# How it was run: as §1
# [24] = target: Neu5Ac(a2-6)Gal(b1-4)GlcNAc(b1-3)Gal(b1-3)GlcNAc
# How it was run: as §1
# [25] = target: Neu5Ac(a2-6)Gal(b1-4)GlcNAc(b1-3)Gal(b1-4)GlcNAc
# How it was run: as §1
# [26] = target: Neu5Ac(a2-6)Gal(b1-4)GlcNAc(b1-3)Gal(b1-4)GlcNAc(b1-2)Man(a1-3)[Neu5Ac(a2-6)Gal(b1-4)GlcNAc(b1-3)Gal(b1-4)GlcNAc(b1-2)Man(a1-6)]GalNAc
# How it was run: as §1
# [27] = target: Neu5Ac(a2-6)Gal(b1-4)GlcNAc(b1-3)Gal(b1-4)GlcNAc(b1-3)Gal(b1-4)GlcNAc
# How it was run: as §1
# [28] = target: Neu5Ac(a2-6)Gal(b1-4)GlcNAc(b1-3)Gal(b1-4)GlcNAc(b1-3)Gal(b1-4)GlcNAc(b1-2)Man(a1-3)[Neu5Ac(a2-6)Gal(b1-4)GlcNAc(b1-3)Gal(b1-4)GlcNAc(b1-3)Gal(b1-4)GlcNAc(b1-2)Man(a1-6)]GalNAc
# How it was run: as §1
# [29] = target: Neu5Ac(a2-6)Gal(b1-4)GlcNAc(b1-3)Gal(b1-4)GlcNAc(b1-3)GalNAc
# How it was run: as §1
# [30] = target: Neu5Ac(a2-6)Gal(b1-4)GlcNAc(b1-3)Gal(b1-4)GlcNAc(b1-3)[Neu5Ac(a2-6)Gal(b1-4)GlcNAc(b1-3)Gal(b1-4)GlcNAc(b1-6)]GalNAc
# How it was run: as §1
# [31] = target: Neu5Ac(a2-6)Gal(b1-4)GlcNAc(b1-3)Gal(b1-4)GlcNAc(b1-6)[Gal(b1-3)]GalNAc
# How it was run: as §1
# [32] = target: Neu5Ac(a2-6)Gal(b1-4)GlcNAc(b1-3)Gal(b1-4)[Fuc(a1-3)]GlcNAc(b1-3)Gal(b1-4)[Fuc(a1-3)]GlcNAc
# How it was run: as §1
# [33] = target: Neu5Ac(a2-6)Gal(b1-4)GlcNAc(b1-3)GalNAc
# How it was run: as §1
# [34] = target: Neu5Ac(a2-6)Gal(b1-4)GlcNAc(b1-3)[Neu5Ac(a2-6)Gal(b1-4)GlcNAc(b1-6)]GalNAc
# How it was run: as §1
binder,measurement,setting,value
B1,glycan array binding signal (z-score),Neu5Ac(a2-3)GalNAc,-0.526
same,glycan array binding signal (z-score),[1],-0.652
same,glycan array binding signal (z-score),[2],-0.208
same,glycan array binding signal (z-score),[3],-0.185
same,glycan array binding signal (z-score),[4],2.04
same,glycan array binding signal (z-score),[5],-0.608
same,glycan array binding signal (z-score),Neu5Ac(a2-6)Gal,-0.792
same,glycan array binding signal (z-score),[6],-0.42
same,glycan array binding signal (z-score),Neu5Ac(a2-6)Gal(b1-4)Glc,-0.346
same,glycan array binding signal (z-score),[7],-0.748
same,glycan array binding signal (z-score),[8],-0.457
same,glycan array binding signal (z-score),[9],1.48
same,glycan array binding signal (z-score),[10],0.915
same,glycan array binding signal (z-score),[11],-0.77
same,glycan array binding signal (z-score),[12],-0.503
same,glycan array binding signal (z-score),[13],-0.366
same,glycan array binding signal (z-score),[14],-0.22
same,glycan array binding signal (z-score),[15],0.518
same,glycan array binding signal (z-score),[16],-0.532
same,glycan array binding signal (z-score),[17],-0.355
same,glycan array binding signal (z-score),[18],1.47
same,glycan array binding signal (z-score),[19],1.73
same,glycan array binding signal (z-score),[20],-0.495
same,glycan array binding signal (z-score),[21],1.03
same,glycan array binding signal (z-score),[22],0.99
same,glycan array binding signal (z-score),[23],-0.454
same,glycan array binding signal (z-score),[24],-0.425
same,glycan array binding signal (z-score),[25],-0.428
same,glycan array binding signal (z-score),[26],2.67
same,glycan array binding signal (z-score),[27],-0.832
same,glycan array binding signal (z-score),[28],0.485
same,glycan array binding signal (z-score),[29],-0.49
same,glycan array binding signal (z-score),[30],-0.046
same,glycan array binding signal (z-score),[31],1.83
same,glycan array binding signal (z-score),[32],-0.632
same,glycan array binding signal (z-score),[33],-0.462
same,glycan array binding signal (z-score),[34],-0.544

# Looked up one by one from above, three records:
binder,measurement,setting,value
B1,glycan array binding signal (z-score),[32],-0.632
same,glycan array binding signal (z-score),[12],-0.503
same,glycan array binding signal (z-score),[1],-0.652
